Measurements published in PMC7862700.
The entries are a selection whose mix differs from that of the whole data set. For part of these data: At the low end of the ranking, values are background and their order means little. This is one part of the list. For part of these data: The exact form of the protein is not confirmed.

Molecular target: T1, ELK4 (UniProt P28324-2)
T1 sequence: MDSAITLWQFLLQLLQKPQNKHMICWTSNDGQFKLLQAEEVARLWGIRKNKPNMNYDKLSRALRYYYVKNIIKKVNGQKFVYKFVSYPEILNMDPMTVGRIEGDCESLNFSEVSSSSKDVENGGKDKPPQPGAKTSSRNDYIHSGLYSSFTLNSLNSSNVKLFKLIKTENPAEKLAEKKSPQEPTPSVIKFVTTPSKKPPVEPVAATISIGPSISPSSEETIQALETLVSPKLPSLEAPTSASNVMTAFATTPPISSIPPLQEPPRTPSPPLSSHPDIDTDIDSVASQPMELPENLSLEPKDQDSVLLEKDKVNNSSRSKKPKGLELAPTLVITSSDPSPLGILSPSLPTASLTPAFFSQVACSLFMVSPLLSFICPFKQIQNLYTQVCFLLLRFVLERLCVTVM
Assay: DAPPL (digital affinity profiling via proximity ligation, sequencing)
Details: 10 mM Tris-HCl pH 7.5, 50 mM NaCl, 1 mM DTT, 4% glycerol, room temperature, 30 min; GST-TFs on glutathione beads, 16-mer random dsDNA library, 0.1% …; high values mean tight binding; double strand, one strand shown; scale: fold enrichment (6-mer frequency, TF over GST control)

Sequence | binding signal
CTGAAT | 1.31
TTAATG | 1.21
CTGCGA | 1.08
CAAATT | 0.984
CCCCCA | 1.19
GCTCCT | 1.33
GCCTTT | 1.32
GTCCTA | 1.13
ATGTCT | 1.07
AACAGC | 1.2
ATGGCT | 1.34
GCCTTC | 1.64
GCTTTC | 1.26
TTAAGC | 1.15
TCTAGT | 1.17
GACCTA | 1.14
AATGCC | 1.16
AATCAA | 1.18
ATAACT | 1.22
GATGAT | 1.26

Sequence | binding signal
TCGCTC | 1.29
ACTTAC | 1.12
ATGGAA | 1.13
AAACAT | 1.49
TCTCGA | 1.46
ATGGCC | 1.48
ATCTGA | 1.2
ATAGAA | 1.02
GGATCC | 1.05
CCCGCA | 1.35
AATTCA | 1.26
TATTCA | 1.33
ATCAAT | 0.984
ATTGCG | 1.14
CACTCT | 1.58
CCCGTT | 1.06
TAAACA | 1.37
ACATTA | 1.18
CGAGCT | 0.977

Molecular target: T2, ETV4 (UniProt P43268)
T2 sequence: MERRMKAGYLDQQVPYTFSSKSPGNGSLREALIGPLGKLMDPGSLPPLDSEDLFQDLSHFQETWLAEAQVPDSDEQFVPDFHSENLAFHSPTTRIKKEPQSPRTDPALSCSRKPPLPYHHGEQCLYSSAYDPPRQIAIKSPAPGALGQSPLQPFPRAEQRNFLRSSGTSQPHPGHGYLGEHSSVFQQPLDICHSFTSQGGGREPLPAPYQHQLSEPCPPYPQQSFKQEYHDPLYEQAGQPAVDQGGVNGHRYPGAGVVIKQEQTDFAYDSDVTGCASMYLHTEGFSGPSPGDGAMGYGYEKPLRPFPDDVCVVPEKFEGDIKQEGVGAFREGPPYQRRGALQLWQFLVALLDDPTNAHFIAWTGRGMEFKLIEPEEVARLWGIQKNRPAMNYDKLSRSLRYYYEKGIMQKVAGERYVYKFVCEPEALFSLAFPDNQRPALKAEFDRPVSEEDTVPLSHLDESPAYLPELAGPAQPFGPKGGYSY
Assay: as above
Details: 10 mM Tris-HCl pH 7.5, 50 mM NaCl, 1 mM DTT, 4% glycerol, room temperature, 30 min; GST-TFs on glutathione beads, 16-mer random dsDNA library, 0.1% …; high values mean tight binding; double strand, one strand shown; scale: fold enrichment (6-mer frequency, TF over GST control)

Sequence | binding signal
CTGAAT | 1.36
TTAATG | 1.22
CTGCGA | 1.3
CAAATT | 1.14
CCCCCA | 1.22
GCTCCT | 1.45
GCCTTT | 1.49
GTCCTA | 1.17
ATGTCT | 1.31
AACAGC | 1.11
ATGGCT | 1.41
GCCTTC | 1.63
GCTTTC | 1.29
TTAAGC | 1.24
TCTAGT | 1.17
GACCTA | 1.13
AATGCC | 1.08
AATCAA | 1.14
ATAACT | 1.26
GATGAT | 1.41

Sequence | binding signal
TCGCTC | 1.25
ACTTAC | 1.2
ATGGAA | 1.21
AAACAT | 1.46
TCTCGA | 1.38
ATGGCC | 1.46
ATCTGA | 1.16
ATAGAA | 1.07
GGATCC | 1.21
CCCGCA | 1.27
AATTCA | 1.31
TATTCA | 1.29
ATCAAT | 1.13
ATTGCG | 1.26
CACTCT | 1.34
CCCGTT | 1.22
TAAACA | 1.17
ACATTA | 1.22
CGAGCT | 1.09
